In publication PMC4754747:
These are yes or no findings as the source states them, for the method shown. Some results given as binding are weak or reduced against the parent protein; the word gives no strength.

By UniProt entry, the sequences of proteins in these tests, tags left out.
UniProt P06732: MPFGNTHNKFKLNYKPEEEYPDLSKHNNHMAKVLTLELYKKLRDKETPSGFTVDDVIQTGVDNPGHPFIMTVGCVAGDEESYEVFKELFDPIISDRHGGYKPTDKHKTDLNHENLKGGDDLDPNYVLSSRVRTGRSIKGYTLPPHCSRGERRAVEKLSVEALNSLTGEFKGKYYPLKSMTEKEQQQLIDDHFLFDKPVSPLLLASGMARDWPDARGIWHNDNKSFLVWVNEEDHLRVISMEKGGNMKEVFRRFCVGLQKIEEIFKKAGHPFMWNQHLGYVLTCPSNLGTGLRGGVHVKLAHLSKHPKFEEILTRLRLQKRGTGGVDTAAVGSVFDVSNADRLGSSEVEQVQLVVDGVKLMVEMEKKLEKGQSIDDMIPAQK

Molecular target: human muscle-type creatine kinase homodimer (hMMCK) (human) (UniProt P06732)
Assay: SEC; gel filtration on Superdex 200 10/300 GL (AKTA purifier) of thermally inactivated samples; temperatures for hMMCK not stated in the text (thermal inactivation: 0.2 mg/ml enzyme in 5 mM Tris-HCl, pH 8.0, 10 min); dimer to monomers; both purified

human muscle-type creatine kinase homodimer (hMMCK) (from UniProt P06732 1-381) (enzyme)
binding: binds
